These are yes or no findings as the source states them, for the method shown. In cells and extracts the contact can be indirect. A result given as binding can be weak or reduced; the word gives no strength.

Protein sequences, listed by entry. Tags and fused reporters are not part of them. Lines headed by an entry give the natural chain unless they say otherwise; changes in a name come on top. Residues count along the entry.
UniProt P05362, residues 28-532: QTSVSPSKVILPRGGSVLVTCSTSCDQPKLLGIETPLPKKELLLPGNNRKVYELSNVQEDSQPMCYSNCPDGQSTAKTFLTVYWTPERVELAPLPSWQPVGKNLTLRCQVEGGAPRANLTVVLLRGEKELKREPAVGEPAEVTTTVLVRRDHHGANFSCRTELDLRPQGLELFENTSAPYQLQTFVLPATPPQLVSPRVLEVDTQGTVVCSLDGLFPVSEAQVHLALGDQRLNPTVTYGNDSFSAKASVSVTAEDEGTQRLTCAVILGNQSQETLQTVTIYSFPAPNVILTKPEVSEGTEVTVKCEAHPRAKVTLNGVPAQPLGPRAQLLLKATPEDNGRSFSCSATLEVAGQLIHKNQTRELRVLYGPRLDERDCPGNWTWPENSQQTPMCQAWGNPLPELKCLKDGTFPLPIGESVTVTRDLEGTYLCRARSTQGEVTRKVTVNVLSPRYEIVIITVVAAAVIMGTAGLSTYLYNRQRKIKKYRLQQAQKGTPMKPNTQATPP
UniProt P14780: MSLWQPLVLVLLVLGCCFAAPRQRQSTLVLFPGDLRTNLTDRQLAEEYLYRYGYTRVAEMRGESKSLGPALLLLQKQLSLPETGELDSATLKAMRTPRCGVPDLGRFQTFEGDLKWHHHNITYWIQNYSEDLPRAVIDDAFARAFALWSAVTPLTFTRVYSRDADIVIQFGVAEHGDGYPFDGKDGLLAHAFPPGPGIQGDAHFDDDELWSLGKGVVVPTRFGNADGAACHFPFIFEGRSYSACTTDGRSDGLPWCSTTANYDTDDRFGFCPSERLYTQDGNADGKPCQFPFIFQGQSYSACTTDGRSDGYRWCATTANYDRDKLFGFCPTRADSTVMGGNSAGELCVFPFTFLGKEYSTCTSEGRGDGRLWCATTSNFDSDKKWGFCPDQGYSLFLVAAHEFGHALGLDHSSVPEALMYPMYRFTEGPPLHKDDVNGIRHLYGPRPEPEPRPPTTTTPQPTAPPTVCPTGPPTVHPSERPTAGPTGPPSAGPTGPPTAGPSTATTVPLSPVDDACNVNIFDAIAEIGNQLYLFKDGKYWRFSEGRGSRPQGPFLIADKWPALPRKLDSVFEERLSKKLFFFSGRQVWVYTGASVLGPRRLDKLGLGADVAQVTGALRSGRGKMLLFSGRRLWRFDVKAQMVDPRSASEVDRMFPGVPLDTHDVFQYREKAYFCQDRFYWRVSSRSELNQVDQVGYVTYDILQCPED

The assay deals with Intercellular cell adhesion molecule 1 (ICAM1) (human (endogenous in M13SV1-Cre)) (UniProt P05362). The assay is described as follows: co-IP; lysates of M13SV1-Cre cells (untreated, 100 ng/ml TNF-α, 10 μg/ml minocycline or both, 72 h); 1% NP-40, 50 mM Tris-HCl pH 7.5, 150 mM NaCl, 1 mM EDTA, 1 mM EGTA; ICAM1 precipitated with anti-ICAM1/CD54 (clone 11C81, 5 μg/ml) overnight at 4 °C and Protein A magnetic beads; IgG1 as control; MMP9 detected by Western blot. In general terms: In western blotting, separated proteins are transferred to a membrane and probed.

With “Matrix metalloproteinase-9 (MMP9) (from UniProt P14780) (enzyme)”, the binding entry is recorded as “binds”.

The values above are taken from publication PMC5894245.
